## Screening data, single-dose tests

Chains of the proteins cited; added tags and fusions are not shown. Residues count along the entry.
UniProt Q8IDJ8, 1-583: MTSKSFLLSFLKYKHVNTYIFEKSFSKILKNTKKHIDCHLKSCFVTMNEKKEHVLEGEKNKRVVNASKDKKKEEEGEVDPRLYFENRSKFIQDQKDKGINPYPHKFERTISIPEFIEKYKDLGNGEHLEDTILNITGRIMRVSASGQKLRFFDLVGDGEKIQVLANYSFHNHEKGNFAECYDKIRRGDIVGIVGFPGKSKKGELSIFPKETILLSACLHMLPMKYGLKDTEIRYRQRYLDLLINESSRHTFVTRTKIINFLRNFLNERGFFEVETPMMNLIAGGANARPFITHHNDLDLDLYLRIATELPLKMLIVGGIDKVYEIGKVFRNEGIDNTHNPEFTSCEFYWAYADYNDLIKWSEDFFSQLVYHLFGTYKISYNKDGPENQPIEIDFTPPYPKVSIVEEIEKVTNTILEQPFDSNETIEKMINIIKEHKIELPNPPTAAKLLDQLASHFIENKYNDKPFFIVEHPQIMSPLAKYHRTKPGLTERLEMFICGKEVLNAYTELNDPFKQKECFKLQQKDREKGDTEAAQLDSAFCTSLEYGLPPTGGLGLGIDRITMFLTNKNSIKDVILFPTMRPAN
UniProt Q4DA54, 1-478: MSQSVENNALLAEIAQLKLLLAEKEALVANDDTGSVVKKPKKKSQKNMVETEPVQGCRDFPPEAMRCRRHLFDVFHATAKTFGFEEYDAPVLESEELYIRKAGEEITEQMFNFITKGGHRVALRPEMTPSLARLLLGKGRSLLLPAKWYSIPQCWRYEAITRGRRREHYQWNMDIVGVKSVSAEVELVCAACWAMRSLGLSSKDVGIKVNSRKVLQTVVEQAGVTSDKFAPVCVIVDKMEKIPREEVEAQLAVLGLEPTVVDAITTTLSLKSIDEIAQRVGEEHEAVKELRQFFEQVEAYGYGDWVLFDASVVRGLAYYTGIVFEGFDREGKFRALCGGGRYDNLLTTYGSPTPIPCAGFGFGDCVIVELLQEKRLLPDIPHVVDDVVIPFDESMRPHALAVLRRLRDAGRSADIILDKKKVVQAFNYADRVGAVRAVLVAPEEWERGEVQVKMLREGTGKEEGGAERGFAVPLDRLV

Leishmania in macrophages: 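Cell assay of Leishmania donovani living inside macrophages; the read-out is not stated. Tested at 30 µM. Higher reads as stronger inhibition (inferred: compounds with an IC50 in retests scored well above the rest). Size under these conditions: about 69,000 compounds, about 1,000 of them at 50% or above in at least one test.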
T. brucei: 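Whole-parasite assay of Trypanosoma brucei over 72 hours; the read-out is not stated. Compounds at 30 µM. The record gives no direction; compounds that gave an IC50 in retests scored well above the rest, so higher reads as stronger inhibition. Values scatter widely below zero; nearly all retest evidence comes from the higher of the two concentrations used. Of about 64,000 compounds tested this way, about 940 (1.5%) reached 50% or more in at least one test.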
Toxoplasma: 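Assay of Toxoplasma gondii numbers, read through their beta-galactosidase reporter with a colour substrate. Compounds at 10 µM. Higher reads as fewer parasites (inferred from which compounds were picked for retests). Of about 67,000 compounds tested this way, about 260 (0.38%) reached 50% or more in at least one test.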
PfKRS1: 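Enzyme assay of the cytosolic lysyl-tRNA synthetase in 384-well plates, read by luminescence. Target: Lysine-tRNA ligase, Plasmodium falciparum 3D7 (UniProt Q8IDJ8). Compounds at 30 µM. Direction is inferred from only a few compounds that gave an IC50; most scored high, so higher reads as stronger inhibition. Of about 69,000 compounds tested this way, about 49 (0.071%) reached 50% or more in at least one test.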
TcHisRS: 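Enzyme assay of histidyl-tRNA synthetase; the read-out is not stated. Target: Histidine-tRNA ligase, Trypanosoma cruzi CL Brener (UniProt Q4DA54). Compounds at 30 µM. Higher reads as stronger inhibition (inferred: compounds with an IC50 in retests scored well above the rest). About 69,000 compounds were tested under these conditions; 0.045% (about 31) showed 50% or more at least once.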

Each number is a percent effect as filed. The controls that fix the scale are not given in the record; negative values are as filed. Compounds were drawn at random from those tested, without regard to their results.

compound: CN(C)C(C(=O)N1CCCN(C(=O)C2CCC2)CC1)c1ccccc1F (configuration not stated)
Leishmania in macrophages: -4.301
T. brucei: -17.12
Toxoplasma: -1.321
PfKRS1: -1.862
TcHisRS: 3.175

compound: O=C(O)C(F)(F)F.O=C(O)C(F)(F)F.O=C(c1cnc2n1CCN(Cc1ccccc1)C2)N1CCCC1
Leishmania in macrophages: -5.417
T. brucei: -305.8
Toxoplasma: -6.995

compound: O=C(Nc1ccccc1)C1CN(CC2CC2)CC12CCOCC2 (configuration not stated)
PfKRS1: 1.898
TcHisRS: 1.622

compound: Cc1sc2c(C3CCCNC3)nc(Nc3cccc(F)c3)n2c1C (configuration not stated)
PfKRS1: 0.5837
TcHisRS: 7.28

compound: O=C1CC(c2ccccc2)c2c(n3ccsc3nc2=O)N1 (configuration not stated)
Leishmania in macrophages: -20.06
T. brucei: 14.56
Toxoplasma: -1.195
PfKRS1: 5.353
TcHisRS: -0.5464

compound: Cc1cc(CN2CCN(C(C)c3nc(C4CC4)no3)CC2)no1 (configuration not stated)
Leishmania in macrophages: 8.907
T. brucei: -29.36
Toxoplasma: -3.881
PfKRS1: 0.1452
TcHisRS: 2.632

compound: Cc1ccsc1C(=O)N1CC(C(=O)N2CCOCC2)C2(CCOCC2)C1 (configuration not stated)
Leishmania in macrophages: -11.62
T. brucei: -30.74
Toxoplasma: -1.663
PfKRS1: -3.019
TcHisRS: 2.174

compound: Cc1cc(CN2CCCC(Cn3cncn3)C2)no1 (configuration not stated)
Leishmania in macrophages: -13.69
Toxoplasma: 4.307
PfKRS1: -3.001
TcHisRS: 2.564

compound: COC(=O)CCCn1ccnc1-c1ccc(OC)c(F)c1F
Leishmania in macrophages: -16.52
T. brucei: -50.61
Toxoplasma: 12.28
PfKRS1: 2.295
TcHisRS: 6.557

compound: Cc1ccc(CN2Cc3c(cnn3C)C(COCC3CC3)C2)s1 (configuration not stated)
Leishmania in macrophages: 92.44
T. brucei: 38.62
Toxoplasma: 34.54
PfKRS1: 1.853
TcHisRS: -0.8772

compound: CN(C)CCN1CCN(Cc2nccs2)Cc2cccnc21.O=C(O)C(F)(F)F.O=C(O)C(F)(F)F.O=C(O)C(F)(F)F
Leishmania in macrophages: -1.318
T. brucei: -78.15
Toxoplasma: 5.421

compound: CN1CCCNC(=O)C12CCN(C(=O)c1ccc3[nH]cnc3c1)CC2
Leishmania in macrophages: -7.595
T. brucei: 28.47
Toxoplasma: -44.81
PfKRS1: 10.82
TcHisRS: 4

compound: O=C(Nc1ccc(F)c(-n2cccc2)c1)NC1(CCO)CCOCC1
Leishmania in macrophages: -24.26
T. brucei: 7.873
Toxoplasma: -8.163
PfKRS1: -3.983
TcHisRS: 0.8403

compound: COC(=O)CSCc1noc(-c2ccc(Cl)cc2)n1
Leishmania in macrophages: 13.75
T. brucei: -80.45
Toxoplasma: 11
PfKRS1: 6.675
TcHisRS: 9.877

compound: CC(=O)N1CCOCC2(CN(Cc3ccc(C)o3)CCO2)C1.O=C(O)C(F)(F)F (configuration not stated)
Leishmania in macrophages: -8.184
T. brucei: 0.2271
Toxoplasma: -3.272

From ChEMBL document CHEMBL3988442, “University of Dundee, Small-Polar-MMV Screening Library” (2021).